Reference: publication PMC9785994

Sequences of proteins named here, by UniProt entry; tags and fusion partners are left off. A change or cut given only in a name is not applied to a line headed by its entry.
UniProt P23443: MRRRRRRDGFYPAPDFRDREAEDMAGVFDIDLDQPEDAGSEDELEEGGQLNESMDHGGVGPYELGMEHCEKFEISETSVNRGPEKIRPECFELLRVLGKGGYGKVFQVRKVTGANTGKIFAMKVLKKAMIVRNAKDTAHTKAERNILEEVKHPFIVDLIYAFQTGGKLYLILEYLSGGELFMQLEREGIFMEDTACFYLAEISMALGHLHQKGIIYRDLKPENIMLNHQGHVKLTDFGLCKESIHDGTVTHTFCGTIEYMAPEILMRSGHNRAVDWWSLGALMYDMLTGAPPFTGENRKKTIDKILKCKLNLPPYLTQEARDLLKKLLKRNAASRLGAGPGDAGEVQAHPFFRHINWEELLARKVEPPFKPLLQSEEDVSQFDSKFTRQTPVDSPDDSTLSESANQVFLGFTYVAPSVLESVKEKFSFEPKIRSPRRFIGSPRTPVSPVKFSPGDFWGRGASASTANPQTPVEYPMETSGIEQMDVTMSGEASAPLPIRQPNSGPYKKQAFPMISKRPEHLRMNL
UniProt P35222: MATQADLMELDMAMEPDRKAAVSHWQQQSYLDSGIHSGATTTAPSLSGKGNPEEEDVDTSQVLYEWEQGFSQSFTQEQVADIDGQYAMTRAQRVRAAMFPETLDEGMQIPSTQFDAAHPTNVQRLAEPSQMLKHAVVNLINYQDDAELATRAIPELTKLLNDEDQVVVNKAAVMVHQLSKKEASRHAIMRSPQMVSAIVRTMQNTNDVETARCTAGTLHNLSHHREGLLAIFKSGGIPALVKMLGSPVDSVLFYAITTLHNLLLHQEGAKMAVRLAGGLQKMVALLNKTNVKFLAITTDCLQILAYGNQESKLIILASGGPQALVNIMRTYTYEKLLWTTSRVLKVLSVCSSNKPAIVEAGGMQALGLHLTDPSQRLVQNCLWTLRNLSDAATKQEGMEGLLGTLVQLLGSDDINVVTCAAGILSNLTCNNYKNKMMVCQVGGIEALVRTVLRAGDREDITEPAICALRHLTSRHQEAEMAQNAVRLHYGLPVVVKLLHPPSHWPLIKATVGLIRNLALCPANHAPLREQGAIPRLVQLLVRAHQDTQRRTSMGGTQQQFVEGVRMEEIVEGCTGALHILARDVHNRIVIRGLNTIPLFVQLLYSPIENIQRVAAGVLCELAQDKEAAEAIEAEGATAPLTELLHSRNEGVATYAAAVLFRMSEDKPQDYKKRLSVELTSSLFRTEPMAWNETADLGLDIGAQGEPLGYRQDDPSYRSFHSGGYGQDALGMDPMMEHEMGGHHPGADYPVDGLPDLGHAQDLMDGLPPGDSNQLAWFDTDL

What was measured:
[1] = biological target: Flag-tagged constitutively active S6K1 (S6K1-CA) (human) (UniProt P23443); test: co-IP; 293T cells expressing Flag-tagged WT, CA and DN forms of S6K1, treated with LiCl (25 mM) for 8 h; immunoprecipitation with Flag antibody
[2] = biological target: Flag-tagged dominant-negative S6K1 (S6K1-DN) (human) (UniProt P23443); test: as above

- binding [1]: binds
- binding [2]: binds
Substance: β-catenin, endogenous in 293T cells (from UniProt P35222 1-781)

Results are given in words; binding and its absence hold for the method and conditions named. Binding seen in cells or lysates may run through a third protein. Binding can be weak; no strength is given.
